Results: patent US20080050387A1, “Non-Androgen Dependent Roles for Androgen Receptor and Non-Androgen Related Inhibitors of Androgen Receptor” (priority 2003, published 2008)
No constants are given. Whether binding was seen depends on the method and setting. For part of these data: In cells and extracts the contact can be indirect. Some entries that bind do so weakly or less than the wild type.

Protein sequences, listed by entry. Tags and fused reporters are not part of them. Lines headed by an entry give the natural chain unless they say otherwise; changes in a name come on top.
UniProt P10275: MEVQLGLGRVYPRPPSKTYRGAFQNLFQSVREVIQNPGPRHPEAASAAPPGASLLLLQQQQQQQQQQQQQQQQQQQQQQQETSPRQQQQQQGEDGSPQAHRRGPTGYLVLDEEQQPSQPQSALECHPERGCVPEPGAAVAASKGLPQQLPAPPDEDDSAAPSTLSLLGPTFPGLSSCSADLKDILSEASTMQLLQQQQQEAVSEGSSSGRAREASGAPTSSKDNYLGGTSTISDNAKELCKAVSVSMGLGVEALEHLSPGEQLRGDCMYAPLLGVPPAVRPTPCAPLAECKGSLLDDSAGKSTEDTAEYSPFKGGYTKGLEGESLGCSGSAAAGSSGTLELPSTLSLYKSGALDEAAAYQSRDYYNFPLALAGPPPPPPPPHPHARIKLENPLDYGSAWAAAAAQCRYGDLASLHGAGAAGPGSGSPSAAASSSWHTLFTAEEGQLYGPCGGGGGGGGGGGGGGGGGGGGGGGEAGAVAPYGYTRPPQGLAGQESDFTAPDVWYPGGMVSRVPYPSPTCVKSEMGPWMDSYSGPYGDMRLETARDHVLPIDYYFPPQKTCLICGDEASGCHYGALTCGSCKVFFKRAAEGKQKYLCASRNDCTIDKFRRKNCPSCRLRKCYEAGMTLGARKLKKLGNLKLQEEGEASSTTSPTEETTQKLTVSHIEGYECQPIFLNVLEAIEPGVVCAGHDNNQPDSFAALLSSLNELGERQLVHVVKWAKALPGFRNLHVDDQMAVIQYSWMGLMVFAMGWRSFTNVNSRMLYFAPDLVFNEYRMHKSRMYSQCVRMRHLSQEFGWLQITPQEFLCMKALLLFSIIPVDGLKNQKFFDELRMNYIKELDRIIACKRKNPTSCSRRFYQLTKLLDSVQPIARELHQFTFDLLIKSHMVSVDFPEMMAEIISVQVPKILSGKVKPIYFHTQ
UniProt P49841: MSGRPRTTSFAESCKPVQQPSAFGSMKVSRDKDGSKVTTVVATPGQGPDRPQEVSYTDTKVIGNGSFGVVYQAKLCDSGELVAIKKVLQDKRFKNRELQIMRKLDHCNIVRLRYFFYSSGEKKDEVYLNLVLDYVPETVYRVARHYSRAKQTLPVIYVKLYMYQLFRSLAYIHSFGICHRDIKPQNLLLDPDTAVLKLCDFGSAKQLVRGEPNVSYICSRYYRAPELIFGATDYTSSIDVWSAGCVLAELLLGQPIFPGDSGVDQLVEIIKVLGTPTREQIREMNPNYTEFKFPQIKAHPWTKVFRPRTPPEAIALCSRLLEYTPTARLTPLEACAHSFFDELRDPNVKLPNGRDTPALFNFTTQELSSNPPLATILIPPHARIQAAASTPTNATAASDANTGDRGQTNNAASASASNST
UniProt Q92624: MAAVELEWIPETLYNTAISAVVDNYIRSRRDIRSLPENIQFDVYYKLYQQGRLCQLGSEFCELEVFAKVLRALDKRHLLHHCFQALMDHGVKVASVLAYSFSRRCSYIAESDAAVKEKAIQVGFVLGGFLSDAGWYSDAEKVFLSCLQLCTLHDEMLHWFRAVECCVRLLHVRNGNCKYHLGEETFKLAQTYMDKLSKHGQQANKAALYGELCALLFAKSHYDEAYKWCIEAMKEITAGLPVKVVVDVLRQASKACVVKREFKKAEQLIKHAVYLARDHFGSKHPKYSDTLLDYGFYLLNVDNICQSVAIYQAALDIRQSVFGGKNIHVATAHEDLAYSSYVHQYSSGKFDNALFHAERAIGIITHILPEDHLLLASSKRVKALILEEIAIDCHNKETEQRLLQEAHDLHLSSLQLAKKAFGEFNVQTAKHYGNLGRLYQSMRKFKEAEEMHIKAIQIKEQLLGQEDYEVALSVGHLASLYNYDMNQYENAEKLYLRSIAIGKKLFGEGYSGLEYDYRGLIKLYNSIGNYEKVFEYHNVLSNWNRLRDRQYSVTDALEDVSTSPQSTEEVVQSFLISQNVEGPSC
UniProt Q13772: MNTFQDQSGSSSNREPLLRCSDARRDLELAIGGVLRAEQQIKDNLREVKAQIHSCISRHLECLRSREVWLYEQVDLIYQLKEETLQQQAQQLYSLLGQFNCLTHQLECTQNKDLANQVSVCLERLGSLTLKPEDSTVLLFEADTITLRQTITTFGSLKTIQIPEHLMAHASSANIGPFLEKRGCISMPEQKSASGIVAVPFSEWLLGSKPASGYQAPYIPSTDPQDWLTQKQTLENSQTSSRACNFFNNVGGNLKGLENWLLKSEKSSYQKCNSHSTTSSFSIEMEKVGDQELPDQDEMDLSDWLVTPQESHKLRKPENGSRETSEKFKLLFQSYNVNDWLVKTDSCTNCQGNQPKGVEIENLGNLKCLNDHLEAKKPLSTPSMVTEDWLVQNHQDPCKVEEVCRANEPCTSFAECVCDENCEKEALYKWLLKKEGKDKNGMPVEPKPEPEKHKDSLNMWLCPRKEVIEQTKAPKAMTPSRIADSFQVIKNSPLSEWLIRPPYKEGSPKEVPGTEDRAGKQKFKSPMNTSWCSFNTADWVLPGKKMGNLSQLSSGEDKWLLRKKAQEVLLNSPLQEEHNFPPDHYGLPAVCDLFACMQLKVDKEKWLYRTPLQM

Legend:
[1] = molecular target: androgen receptor (AR), full length (human) (UniProt P10275); test: co-immunoprecipitation (FIG. 19)
[2] = molecular target: androgen receptor (AR), full length (human) (UniProt P10275); test: co-immunoprecipitation of endogenous proteins from LNCaP cells with anti-AR NH27, anti-GSK3β blot
[3] = molecular target: androgen receptor (AR), full length (human) (UniProt P10275); test: GST pull-down and co-immunoprecipitation (FIG. 19)
[4] = molecular target: androgen receptor (AR), full length (human) (UniProt P10275); test: GST pull-down: GST-GSK3β with 35S-labeled AR
[5] = molecular target: androgen receptor (AR), full length (human) (UniProt P10275); test: GST pull-down and co-immunoprecipitation
[6] = molecular target: androgen receptor (AR), full length (human) (UniProt P10275); test: co-immunoprecipitation with anti-HA antibody from COS-1 cells transfected with AR and HA-GSK3β, anti-AR blot
[7] = molecular target: androgen receptor (AR), full length (human) (UniProt P10275); test: co-immunoprecipitation with anti-AR antibody from transfected COS-1 cells
[8] = molecular target: AR ligand-binding domain (AR LBD) (human) (UniProt P10275); test: GST pull-down: GST-ARA67 fragments with 35S-labeled AR LBD
AR DBD-LBD (human) = AR DBD-LBD (human) (UniProt P10275); test: yeast two-hybrid, liquid β-gal assay, bait GAL4 DBD-AR-DBD-LBD, DHT
[9] = molecular target: AR N-terminus, amino acids 1-537 (bait of the CytoTrap Sos screen) (human) (UniProt P10275); test: CytoTrap Sos yeast two-hybrid, growth on SD/Gal(-LU) at 37° C
[10] = molecular target: AR N-terminus, amino acids 1-537 (bait of the CytoTrap Sos screen) (human) (UniProt P10275); test: CytoTrap Sos yeast two-hybrid (pSos-ARN + pMyr-ARA67)
[11] = molecular target: AR ligand-binding domain (AR LBD) (human) (UniProt P10275); test: GST pull-down: GST-ARA67 with 35S-labeled AR LBD
[12] = molecular target: AR ligand-binding domain (AR LBD) (human) (UniProt P10275); test: summary of Example 2 (GST pull-down)
[13] = molecular target: AR ligand-binding domain (AR LBD) (human) (UniProt P10275); test: GST pull-down (FIG. 9B)
[14] = molecular target: AR N-terminal fragment ARN1-140 (human) (UniProt P10275); test: GST pull-down: GST-ARN1-140 with 35S-labeled ARA67
[15] = molecular target: AR ligand-binding domain (AR LBD) (human) (UniProt P10275); test: GST pull-down: GST-ARA67 with 35S-labeled ARLBD

## glycogen synthase kinase 3β (GSK3β), full length wild type (from UniProt P49841 1-420) (enzyme)
[1]
  binding: binds
[2]
  binding: binds
[3]
  binding: binds
[4]
  binding: binds
[5]
  binding: binds
[6]
  binding: binds
[7]
  binding: binds

## ARA67 8-140 (from UniProt Q92624 8-140)
[8]
  binding: binds

## ARA67 C-terminal region, ARA67 281-585 (from UniProt Q92624 281-585)
[8]
  binding: binds

## ARA70 (from UniProt Q13772 1-614)
AR DBD-LBD (human)
  binding: binds

## ARA67 clone of the CytoTrap screen, amino acids 20-585 of PAT1 (pMyr-ARA67) (from UniProt Q92624 20-585)
[9]
  binding: binds
[10]
  binding: binds

## ARA67 281-550 (from UniProt Q92624 281-550)
[8]
  binding: binds

## ARA67/PAT1, full length (585 amino acids) (from UniProt Q92624 1-585)
[11]
  binding: binds
[12]
  binding: binds
[13]
  binding: binds
[14]
  binding: binds
[15]
  binding: binds
